No constants are given. Whether binding was seen depends on the method and setting. Some binding calls cover weakened binding; strength is not graded here. Tags and fused reporters may be left off the sequences shown.

The assay has as its target T1, Bt1762 (SusD) W85A, C-terminal His6 tag (Bacteroides thetaiotaomicron VPI-5482) (UniProt Q8A6W4).
T1 sequence (chain, lipid anchor (lipoprotein)): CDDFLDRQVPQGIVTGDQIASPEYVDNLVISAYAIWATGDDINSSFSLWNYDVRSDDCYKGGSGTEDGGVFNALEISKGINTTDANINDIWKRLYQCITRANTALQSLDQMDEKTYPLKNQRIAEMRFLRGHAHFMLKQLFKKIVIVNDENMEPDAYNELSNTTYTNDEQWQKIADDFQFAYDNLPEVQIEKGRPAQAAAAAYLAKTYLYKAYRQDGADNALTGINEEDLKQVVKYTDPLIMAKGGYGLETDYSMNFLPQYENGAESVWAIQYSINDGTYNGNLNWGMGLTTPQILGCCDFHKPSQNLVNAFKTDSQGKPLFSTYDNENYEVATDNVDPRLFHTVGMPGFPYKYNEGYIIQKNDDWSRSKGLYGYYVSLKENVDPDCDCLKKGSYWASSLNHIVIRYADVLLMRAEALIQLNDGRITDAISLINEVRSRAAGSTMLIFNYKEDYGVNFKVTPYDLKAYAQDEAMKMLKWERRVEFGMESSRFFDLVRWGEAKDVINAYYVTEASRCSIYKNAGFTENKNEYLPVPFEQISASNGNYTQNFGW
Kind of assay: co-purification by IMAC, SDS-PAGE.

B1: Bt1763 (SusC) (protein, UniProt Q8A6W3 26-1041)
chain: GQNITVKGNVTSKTDGQPIIGASVVETTATTNGTITDFDGNFTLSVPVNSTLKITYIGYKPVTVKAAAIVNVLLEEDTQMVDEVVVTGYTTQRKADLTGAVSVVKVDEIQKQGENNPVKALQGRVPGMNITADGNPSGSATVRIRGIGTLNNNDPLYIIDGVPTKAGMHELNGNDIESIQVLKDAASASIYGSRAANGVIIITTKQGKKGQIKINFDASVSASMYQSKMNVLNTEQYGRAMWQAYVNDGENPNGNALGYAYNWGYNADGNPVLYGMTLSKYLDSKNTMPVADTDWFDEITRTGVIQQYNLSVSNGSEKGSSFFSLGYYKNLGVIKDTDFDRFSARMNSDYKLIDDILTIGQHFTLNRTSEVQAPGGIIETALDIPSAIPVYASDGSWGGPVGGWPDRRNPRAVLEYNKDNRYTYWRMFGDAYVNLTPFKGFNLRSTFGLDYANKQARYFTYPYQEGTQTNNGKSAVEAKQEHWTKWMWNAIATYQLEVGKHRGDVMIGMELNREDDSHFSGYKEDFSILTPDYMWPDAGSGTAQAYGAGEGYSLVSFFGKMNYSYADRYLLSLTLRRDGSSRFGKNHRYATFPSVSLGWRITQENFMKELTWLDDLKLRASWGQTGNQEISNLARYTIYAPNYGTTDSFGGQSYGTAYDITGSNGGGVLPSGFKRNQIGNDNIKWETTTQTNVGIDFSLFKQSLYGSLEYYYKKATDILTEMAGVGVLGEGGSRWINSGAMKNQGFEFNLGYRNKTAFGLTYDLNGNISTYRNEILELPETVAANGKFGGNGVKSVVGHTYGAQVGYIADGIFKSQDEVDNHATQEGAAVGRIRYRDIDHNGVIDERDQNWIYDPTPSFSYGLNIYLEYKNFDLTMFWQGVQGVDIISDVKKKSDFWSASNVGFLNKGTRLLNAWSPTNPNSDIPALTRSDTNNEQRVSTYFVENGSFLKLRNIQLGYTVPAVISKKMRMDRLRFYCSAQNLLTIKSKNFTGEDPENPNFSYPIPVNITFGLNIGF
Take B1: the binding result is given as “binds”.

The values above are taken from doi:10.1101/2020.06.11.146753.
